Experimental data published in patent publication US6846801B1, “Systemic administration of a therapeutic preparation” (AstraZeneca AB, priority 1993, dated 2005).

Test system: rats
Assay: Rat model: powder inhaled, blood glucose compared with insulin formulations without enhancer
Type: in vivo
Details: w/w of insulin/enhancer mixture
Protocol: Each of the compounds listed in Table III was tested for its ability to enhance uptake of insulin, and thus affect blood glucose levels, in a rat model. Various forms of insulin were employed: recombinant or semisynthetic human or bovine. Each formulation was prepared as above, drying and processing the insulin/enhancer or insulin/enhancer/lactose solution to produce an inhalable powder.
The powder was administered to rats by inhalation, and the blood glucose levels of the rats were subsequently monitored. These levels were compared to the corresponding values obtained from rats which had inhaled insulin formulations without enhancer.

## CCCCCCCCCC(=O)[O-].[Na+] [Sodium caprate]
  lowest effective concentration of sodium caprate relative to insulin: 15-25% and 20-25%

Several values for one entry are separate records, joined by “and”; a condition that tells them apart may be missing. Equal values may be shown once.
